Taken from: PubChem BioAssay AID1259424 (University of Nebraska Medical Center, 2018)
Aim: 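Find knockdowns that reproduce the expression shifts seen after KSR1 loss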 (primary screen). Cells: human HCT116 colon cancer cells. Knock-down reagent: siRNA pool against human genes, 50 nM. Detection: 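Six signature mRNAs by branched-DNA multiplex assay, scaled to two housekeeping genes and non-targeting median, log2; matched to mean KSR1 knockdown profile by Pearson correlation and euclidean distance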. Reading the numbers: mean correlation with KSR1 profile: higher = expression change more like KSR1 knockdown.
This is one part, drawn at random, of about 14,000 reagents tested. 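Higher correlation or smaller distance means closer resemblance to KSR1 loss; control wells, including KSR1 knockdowns, recur on many plates.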 The numbers tell different reagents against one gene apart. Not all columns of the deposit are shown. Not stated in the record: the time to read-out.

mean correlation with KSR1 profile, by gene and reagent
TPX2: #1 -0.187
TMCC3: #1 -0.725
SANBR: #1 -0.168
RBMS3: #1 0.409
SEMA6C: #1 -0.0192
YBX3: #1 0.467
PCDHA9: #1 -0.313
HPRT1: #1 -0.0611
KCND1: #1 -0.529
PRKAB1: #1 -0.103
TAS2R41: #1 0.301
TNNI3: #1 -0.25
ANXA3: #1 0.0481
ADAM10: #1 -0.656
LIPA: #1 0.122
OLIG2: #1 0.519
NBEA: #1 -0.304
SLC50A1: #1 0.218
ATF6: #1 0.0419
SLC4A9: #1 0.594
FANCM: #1 -0.839
CARHSP1: #1 -0.434
MICAL2: #1 -0.705; #2 0.763
TRHR: #1 0.0657
CLTCL1: #1 -0.233
LARP6: #1 -0.33
CPSF1: #1 -0.603
KLHL8: #1 0.498
DMPK: #1 0.163
UBXN7: #1 -0.0766

In a second layout: 4 of the entries above
gene | pool no. | mean correlation with KSR1 profile
OLIG2 | 1 | 0.519
NBEA | 1 | -0.304
SLC50A1 | 1 | 0.218
ATF6 | 1 | 0.0419

The listing continues:
mean correlation with KSR1 profile, by gene and reagent
ACAT1: #1 0.336
ZFP2: #1 -0.387
PLA2G15: #1 0.472
ATP5ME: #1 -0.0248
NPDC1: #1 -0.578
MAFB: #1 0.758
STXBP1: #1 0.453
RGSL1: #1 0.578
TMBIM1: #1 0.21
KIAA0232: #1 -0.486
SYT17: #1 -0.358
ZFYVE28: #1 -0.31
MTBP: #1 -0.845
HNRNPH2: #1 -0.235
SOCS1: #1 0.908
ETF1: #1 -0.00669
PRDM9: #1 0.468
FBXL19: #1 -0.51
GGPS1: #1 0.631
